Test results reported in PubChem BioAssay AID2662 (National Center for Advancing Translational Sciences (NCATS), 2010).
The campaign covered roughly 290,000 compounds. About 110 (0.038%) were called active. Inconclusive results, whose numbers are uncertain, are shown with a selection of clear calls. The call rests on the fitted dose curve; in most records, active means well fitted inhibition curve with a large enough effect in the polarisation, with a control signal flat (not every such curve was filed as active); inconclusive means small, poorly fitted or top-dose-only effect, or effect the other way, or a change in a side signal; inactive means no such curve, though single readings can be large or run the other way; the % refers to the polarisation. Where the call is inconclusive, the potency comes from a doubtful curve fit. “Side channel” marks fits to a control or component signal instead of the main read-out.

The chains behind the UniProt entries cited, without tags or fusion partners.
UniProt Q03164, whole entry, looked up: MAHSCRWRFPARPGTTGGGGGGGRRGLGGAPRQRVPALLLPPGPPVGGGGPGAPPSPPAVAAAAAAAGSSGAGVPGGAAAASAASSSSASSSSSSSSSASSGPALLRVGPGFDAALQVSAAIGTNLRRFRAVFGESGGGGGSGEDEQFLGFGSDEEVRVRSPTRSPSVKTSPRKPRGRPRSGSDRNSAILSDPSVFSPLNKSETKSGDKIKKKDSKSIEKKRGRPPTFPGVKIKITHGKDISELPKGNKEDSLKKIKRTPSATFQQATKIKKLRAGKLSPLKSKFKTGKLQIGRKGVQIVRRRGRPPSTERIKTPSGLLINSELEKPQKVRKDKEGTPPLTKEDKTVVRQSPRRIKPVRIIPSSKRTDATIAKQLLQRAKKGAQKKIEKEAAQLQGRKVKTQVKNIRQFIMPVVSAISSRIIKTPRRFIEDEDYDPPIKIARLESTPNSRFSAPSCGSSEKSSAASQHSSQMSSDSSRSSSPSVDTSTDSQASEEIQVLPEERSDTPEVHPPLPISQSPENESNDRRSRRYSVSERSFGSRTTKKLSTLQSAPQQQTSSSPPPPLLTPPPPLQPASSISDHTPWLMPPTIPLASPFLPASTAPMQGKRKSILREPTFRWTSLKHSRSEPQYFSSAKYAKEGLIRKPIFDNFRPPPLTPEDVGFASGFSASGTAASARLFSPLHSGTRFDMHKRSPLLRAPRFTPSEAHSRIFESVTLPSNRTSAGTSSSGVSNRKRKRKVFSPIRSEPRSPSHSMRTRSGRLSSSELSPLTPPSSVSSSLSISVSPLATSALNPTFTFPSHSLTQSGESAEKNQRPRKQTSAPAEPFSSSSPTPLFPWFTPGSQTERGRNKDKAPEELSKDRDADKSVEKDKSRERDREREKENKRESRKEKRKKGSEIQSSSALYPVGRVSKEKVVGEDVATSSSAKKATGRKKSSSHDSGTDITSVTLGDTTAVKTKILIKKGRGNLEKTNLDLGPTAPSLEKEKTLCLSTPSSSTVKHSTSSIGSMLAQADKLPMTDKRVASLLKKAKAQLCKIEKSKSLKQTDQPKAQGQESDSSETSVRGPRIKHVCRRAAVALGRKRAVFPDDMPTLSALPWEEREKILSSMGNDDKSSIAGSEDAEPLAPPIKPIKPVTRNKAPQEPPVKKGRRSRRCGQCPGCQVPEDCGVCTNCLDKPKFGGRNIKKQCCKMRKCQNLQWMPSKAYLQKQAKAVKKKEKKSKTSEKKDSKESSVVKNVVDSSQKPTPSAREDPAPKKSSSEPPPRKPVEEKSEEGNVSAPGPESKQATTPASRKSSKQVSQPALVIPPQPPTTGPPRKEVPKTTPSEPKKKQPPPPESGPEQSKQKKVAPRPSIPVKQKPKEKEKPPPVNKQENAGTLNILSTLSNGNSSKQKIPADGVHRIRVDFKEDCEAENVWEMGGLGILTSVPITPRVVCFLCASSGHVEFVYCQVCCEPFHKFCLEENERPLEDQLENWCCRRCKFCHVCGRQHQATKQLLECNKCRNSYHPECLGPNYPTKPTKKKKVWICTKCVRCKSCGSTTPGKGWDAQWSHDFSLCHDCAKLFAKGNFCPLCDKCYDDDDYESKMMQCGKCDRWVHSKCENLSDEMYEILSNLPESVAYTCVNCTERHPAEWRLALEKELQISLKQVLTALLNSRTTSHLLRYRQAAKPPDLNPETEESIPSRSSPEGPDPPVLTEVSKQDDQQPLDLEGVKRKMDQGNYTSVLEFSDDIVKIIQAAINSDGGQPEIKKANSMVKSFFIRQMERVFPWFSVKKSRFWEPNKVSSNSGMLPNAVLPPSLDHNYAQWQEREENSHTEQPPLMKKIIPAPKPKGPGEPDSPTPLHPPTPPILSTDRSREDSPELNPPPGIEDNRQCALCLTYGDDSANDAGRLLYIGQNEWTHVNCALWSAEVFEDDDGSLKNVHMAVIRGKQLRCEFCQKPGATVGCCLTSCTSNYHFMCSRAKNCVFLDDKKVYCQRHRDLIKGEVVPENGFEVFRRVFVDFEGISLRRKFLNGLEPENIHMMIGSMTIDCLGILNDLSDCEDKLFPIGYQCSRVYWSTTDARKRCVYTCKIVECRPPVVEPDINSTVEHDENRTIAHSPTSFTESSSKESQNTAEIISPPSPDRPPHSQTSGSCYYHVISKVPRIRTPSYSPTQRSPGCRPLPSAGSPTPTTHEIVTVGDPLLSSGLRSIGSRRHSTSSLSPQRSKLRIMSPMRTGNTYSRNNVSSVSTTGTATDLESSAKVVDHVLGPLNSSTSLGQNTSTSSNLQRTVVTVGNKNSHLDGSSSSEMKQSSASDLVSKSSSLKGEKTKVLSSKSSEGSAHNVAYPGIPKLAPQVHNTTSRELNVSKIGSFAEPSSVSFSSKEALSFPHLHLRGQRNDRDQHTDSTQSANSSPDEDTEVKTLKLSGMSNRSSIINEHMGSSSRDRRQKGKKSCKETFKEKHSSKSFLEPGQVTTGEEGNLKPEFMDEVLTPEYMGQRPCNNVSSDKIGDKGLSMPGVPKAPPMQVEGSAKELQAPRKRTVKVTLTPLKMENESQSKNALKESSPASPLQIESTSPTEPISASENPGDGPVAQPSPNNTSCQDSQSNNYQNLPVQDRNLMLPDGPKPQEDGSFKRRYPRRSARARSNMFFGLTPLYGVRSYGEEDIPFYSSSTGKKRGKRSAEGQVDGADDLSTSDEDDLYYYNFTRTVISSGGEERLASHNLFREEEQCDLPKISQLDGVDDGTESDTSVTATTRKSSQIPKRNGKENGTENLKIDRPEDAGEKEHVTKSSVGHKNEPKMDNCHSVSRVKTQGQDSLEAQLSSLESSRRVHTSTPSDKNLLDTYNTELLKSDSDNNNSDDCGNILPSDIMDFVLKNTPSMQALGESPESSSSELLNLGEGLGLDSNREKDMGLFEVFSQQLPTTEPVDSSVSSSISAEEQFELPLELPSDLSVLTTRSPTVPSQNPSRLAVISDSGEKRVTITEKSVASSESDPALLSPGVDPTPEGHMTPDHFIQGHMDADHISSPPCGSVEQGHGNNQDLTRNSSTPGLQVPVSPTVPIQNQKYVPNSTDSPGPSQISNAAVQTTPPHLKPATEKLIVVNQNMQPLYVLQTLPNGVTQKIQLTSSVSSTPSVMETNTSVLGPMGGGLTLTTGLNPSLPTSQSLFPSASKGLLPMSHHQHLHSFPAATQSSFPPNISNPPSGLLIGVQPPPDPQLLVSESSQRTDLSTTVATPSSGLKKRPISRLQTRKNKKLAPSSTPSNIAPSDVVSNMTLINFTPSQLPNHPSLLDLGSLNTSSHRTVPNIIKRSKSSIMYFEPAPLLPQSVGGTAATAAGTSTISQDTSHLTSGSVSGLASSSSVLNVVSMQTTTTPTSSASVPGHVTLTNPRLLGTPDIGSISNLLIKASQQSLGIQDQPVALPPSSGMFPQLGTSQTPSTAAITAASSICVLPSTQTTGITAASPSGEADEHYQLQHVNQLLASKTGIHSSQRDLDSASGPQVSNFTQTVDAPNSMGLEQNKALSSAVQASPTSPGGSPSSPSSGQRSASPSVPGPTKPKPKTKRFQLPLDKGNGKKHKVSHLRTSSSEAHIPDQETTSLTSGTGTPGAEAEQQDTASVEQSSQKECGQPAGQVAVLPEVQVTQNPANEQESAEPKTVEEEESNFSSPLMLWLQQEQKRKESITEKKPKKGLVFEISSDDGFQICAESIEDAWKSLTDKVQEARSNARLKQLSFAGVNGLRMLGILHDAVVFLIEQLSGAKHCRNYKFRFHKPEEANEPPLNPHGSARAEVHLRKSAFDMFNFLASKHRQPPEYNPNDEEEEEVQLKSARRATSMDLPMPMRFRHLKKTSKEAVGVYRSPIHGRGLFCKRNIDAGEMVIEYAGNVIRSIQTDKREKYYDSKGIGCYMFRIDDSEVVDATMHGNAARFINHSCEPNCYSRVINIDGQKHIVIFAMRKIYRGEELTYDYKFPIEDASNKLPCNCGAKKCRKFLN

The compounds below were run against Histone-lysine N-methyltransferase 2A (Homo sapiens) (UniProt Q03164) (assay: qHTS Fluorescence Polarization Assay for Inhibitors of MLL CXXC domain - DNA interaction). Details: MLL-CXXC / FITC-HOXA9 DNA fluorescence polarization; series mostly up to 115 µM.
Procedure, shortened: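 Purified MLL-CXXC (added from a 7 uM solution) was preincubated 5 min at ambient with pinned compounds in 50 mM Tris-HCl pH 7.5, 50 mM NaCl, 1 mM DTT, 0.05% BSA. Fluorescein-labeled HOX-A9 DNA (50 nM solution) followed, 30 min, then polarization read.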
Potency means the concentration at half of the fitted maximal effect.

| SMILES | Potency |
| --- | --- |
| N#Cc1nc(Cc2ccccc2)oc1N1CCC(Cc2ccccc2)CC1 | inactive |
| CCOC(=O)COc1c(Cl)cc(C2NC(=S)NC(c3ccccc3)=C2C(C)=O)cc1OC (centres undefined) | inconclusive: 89.1 µM [quencher, side channel, single point] |
| CCn1c(CCNC(=O)c2ccc(C)cc2)n[nH]c1=S | inconclusive: 50.1 µM [inhibitor, single point] |
| Cc1cc(C(=O)Nc2ccc(Br)cc2F)n(-c2ccccc2)n1 | inconclusive: 14.1 µM [fluorescent, single point] |
| COc1cccc(C(=O)N2CCN(C3CCN(Cc4ccccc4)CC3)CC2)c1 | inconclusive: 89.1 µM [fluorescent, side channel, single point] |
| COc1ccc(-c2csc3nc(-c4cccnc4)nc(N4CCC(C(N)=O)CC4)c23)cc1OC | inactive |
| O=c1oc2cc(O)ccc2cc1-c1nc2c(s1)CCc1ccccc1-2 | inconclusive: 3.55 µM [fluorescent, side channel, full curve] |
| Cc1ccc(S(=O)(=O)c2cc(OC(=O)c3ccco3)ccc2OC(=O)c2ccco2)cc1 | inactive |
| Cc1cc(OCCCC(=O)NCCN2C(=O)S/C(=C\c3cccnc3)C2=O)ccc1Cl | inconclusive: 1.41 µM [fluorescent, side channel, partial curve, poor fit] |
| Cc1ncc(S(=O)(=O)c2ccccc2)c(-c2ccccc2Cl)n1 | inconclusive: 1 µM [quencher, side channel, partial curve, poor fit] |
| O=C(NC(=S)NNC(=O)c1ccccc1O)c1ccc([N+](=O)[O-])cc1 | inactive |
| COc1ccc(OC)c(NC(=O)c2cc(-c3cc(C)cc(C)c3O)n[nH]2)c1 | inconclusive: 31.6 µM [fluorescent, side channel, partial curve] |
| O=[N+]([O-])c1ccc(N2N=C(c3ccco3)CC2c2ccccc2)cc1 (centres undefined) | inconclusive: 31.6 µM [inhibitor, single point] |
| CCOc1ccc(C(=O)N/N=C/c2ccc(-c3ccc(S(=O)(=O)Nc4ncccn4)cc3)o2)cc1 | inactive |
| CCCNc1[nH]c(=O)n(C)c(=O)c1N=O | inactive |
| CCOCCCNC(=O)c1cc(-c2ccc(Br)s2)nc2ccccc12 | inconclusive: 44.7 µM [fluorescent, side channel, single point] |
| NC(=O)N/N=C1\c2ccccc2-c2c(C(N)=O)cccc21 | inactive |
| CCC(C)n1c(=N)c(C#N)cc2c(=O)n3ccccc3nc21 (centres undefined) | inconclusive: 39.8 µM [fluorescent, side channel, single point] |
| Cc1ccc(S(=O)(=O)N2CCCOC2CNC(=O)C(=O)NCc2ccco2)cc1 (centres undefined) | inconclusive: 14.1 µM [fluorescent, single point] |
| COc1ccc(-c2[nH]ncc2CN2CCC(C(=O)N3CCOCC3)CC2)c(F)c1 | inconclusive: 15.8 µM [inhibitor, single point] |

Taken from above:
Entry for `O=C(NC(=S)NNC(=O)c1ccccc1O)c1ccc([N+](=O)[O-])cc1` under Potency: inactive
Entry for `Cc1cc(C(=O)Nc2ccc(Br)cc2F)n(-c2ccccc2)n1` under Potency: inconclusive: 14.1 µM [fluorescent, single point]
Entry for `COc1ccc(-c2[nH]ncc2CN2CCC(C(=O)N3CCOCC3)CC2)c(F)c1` under Potency: inconclusive: 15.8 µM [inhibitor, single point]

(list continues)

| SMILES | Potency |
| --- | --- |
| CC1CCCCN1C(=O)COc1ccc(F)cc1 (centres undefined) | inconclusive: 17.8 µM [quencher, side channel, partial curve, poor fit] |
| Cc1ccc(-c2cc(C(=O)Nc3cccnc3)c3ccccc3n2)s1 | inconclusive: 7.94 µM [fluorescent, side channel, partial curve, poor fit] |
| Oc1c(CN2CCN(c3ccc(F)cc3)CC2)cc(Cl)c2cccnc12 | inconclusive: 25.1 µM [quencher, side channel, partial curve] |
| Cc1[nH][nH]c(=O)c1C(c1ccc(-c2ccc(C(=O)O)cc2)o1)c1c(C)[nH][nH]c1=O | inconclusive: 31.6 µM [inhibitor, partial curve] |
| CCCNC(=O)c1ccc2c(c1)S(=O)(=O)c1ccccc1C2=O | inconclusive: 15.8 µM [fluorescent, single point] |
| Cc1cc(N2CCN(CC(O)C(F)(F)F)CC2)c2ccccc2n1 (centres undefined) | inactive |
| Cn1cccc1C(=O)NCC1CCCCC1 | inconclusive: 14.1 µM [fluorescent, side channel, single point] |
| O=C(CSc1nc2nc(-c3cccs3)cc(C(F)(F)F)c2c(=O)[nH]1)C(F)(F)F | inconclusive: 12.6 µM [fluorescent, side channel, full curve] |
| COc1ccc(-c2csc(NC(=O)CSc3nc(C)nc4sc(C(=O)O)c(C)c34)n2)cc1 | inconclusive: 35.5 µM [inhibitor, single point] |
| CCCCCCCCCCCCCCC/C=C/[C@@H](O)[C@H](NC(=O)CCCCCCCCCCCCC)OC (tested in a mixture with another compound) | inactive |
| COc1ccc(S(=O)(=O)N2CCOC2CNC(=O)C(=O)NCc2ccccc2Cl)cc1 (centres undefined) | inconclusive: 22.4 µM [fluorescent, side channel, partial curve] |
| C=CCN1C=CC(=CC=C(C#N)C#N)C=C1 | inconclusive: 35.5 µM [fluorescent, side channel, partial curve] |
| COc1ccc(OCC(=O)NCC(c2ccc(OC)cc2)N2CCCCC2)cc1 (centres undefined) | inactive |
| O=C(O)c1cccc(N/N=C/c2ccc(F)c(F)c2)c1 | inconclusive: 15.8 µM [fluorescent, side channel, single point] |
| COC(=O)c1c(C)nc2nonc2c1N | inconclusive: 7.08 µM [inhibitor, partial curve] |
| CCn1c(=O)c2ccccc2n(Cc2cccc([N+](=O)[O-])c2)c1=O | inconclusive: 10 µM [inhibitor, single point] |
| NC1CCN(c2nc3c(cc2F)c(=O)c(C(=O)O)cn3-c2ccc(F)cc2F)C1 (centres undefined) | inconclusive: 14.1 µM [quencher, side channel, full curve] |
| CCN1/C(=C/C(C)=C/c2sc3ccccc3[n+]2CC)Sc2ccccc21 | inconclusive: 31.6 µM [quencher, partial curve] |
| Oc1[nH]c2ccccc2c1N=Nc1c(F)c(F)c(C(F)(F)F)c(F)c1F | inconclusive: 70.8 µM [fluorescent, side channel, single point] |
